Laboratory results from patent US20110223178A1.
No constants are given. Whether binding was seen depends on the method and setting. Some results given as binding are weak or reduced against the parent protein; the word gives no strength.

Sequences of proteins named here, by UniProt entry; tags and fusion partners are left off. A change or cut given only in a name is not applied to a line headed by its entry.
UniProt P78556: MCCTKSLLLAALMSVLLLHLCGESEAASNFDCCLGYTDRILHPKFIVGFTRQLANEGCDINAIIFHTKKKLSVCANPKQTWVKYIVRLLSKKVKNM

biological target: Chemokine beta-4 (CK-β4) (human) (UniProt P78556); experiment: phage display selection of scFvs on CK-β4

Row | Binder | binding
1 | scFv F075G06 (scFv) scFv: EVQLVQSGPEVKKPGSSVKVSCRASGGTFSTYAFSWVRQAPGQGLEWMGGIIPVFETPIYAQKLQGRLTITADTSTDTAYMELSNLRSGDTAVYYCAREWGDYYSSVSSGALHYWGQGTLVTVSSGGGGSGGGGSGGGGSAQSVVTQPPSASGTPGQRVTISCSGSRSNIGSNIVNWYQQLVGTAPKLLIYSDNQRPSGVPDRFSGSKSGTSASLAISGLQSEDEADYYCAAWDDSLNRYVFGTGTKVTVLG | binds
2 | scFv F076F10 (scFv) scFv: EVQLVQSGAEVKKPGSSVKVFCKTSGGTFSSYAFGWVRQRPGQGLEWMGGIIPNFDAANYAQKFQDTVAFTADTSTNTLYLELSSLTSDDTAVYYCAREVGVHASGLGAFDIWGRGTLVTVSSGGGGSGGGGSGGGGSAQSVLTQPPSVSGAPRQRVTISCSGSSSNIGDNVVNWYQQLPGKAPKLLIYYDDLLPSGVSDRFSGSKSGTSASLAISGLQSEDEADYFCAAWDDSLDAYVFGTRTKVTVLG | binds
3 | scFv F002E03 (scFv) scFv: EVQLVQSGAEVKKPGSSVKVSCKASGGTFSSYAISWVRQAPGQGLEWMGGIIPMFGAGNYAPKFQDRVTLTADESTSTAYMELSSLTSEDTAVYFCARDSTDFSGDSGLGMDVWGRGTMVTVSSGGGGPGGGGSGGGGSDIQMTQSPSFLSASVGDRVTITCRASQGINNYLAWYQQKPGRAPKLLIYAASSLQSGVPSRFSGSGSGTDFTLTISSLQPEDFATYYCLQDSDYPLTFGGGTKLEIKR | binds
4 | scFv F003B07 (scFv) scFv: EVQLVQSGAEVKKPGSSVKVSCKASGDTFDSYAFSWVRQAPGQGLEWMGGIIPMFDTPIYAQKFQGKVTITADTSTSTVYMKLSSLRSGDTAIYYCAREWGGYYSSESSGALQYWGRGTLVTVSSGGGGSGGGGSGGGGSAQAVLTQPSSVSGAPGQRVTISCTGSRSNIGADYDVQWYQQLPGTAPKLLIYGNNNRPSGVPDRFSGSKSDRSASLAITGLRAEDESDYYCQSYDSSLSVWVFGGGTKLTVLG | binds
5 | scFv F002G03 (scFv) scFv: QVQLVQSGAEVKKPGSSVKVSCKASGGTFNRYAISWVRQAPGQGLEWMGGIIPMFATPIYSQKFQDRVTITADESTSTAYMELSSLRSEDTAVYYCARDRTDYYDTDGYQSPDSWGKGTLVTVSSGGGGPGGGGSGGGGSDIQMTQSPSTLSASIGDRVTITCRASQGINNYLAWYQQKPGRAPKLLIYAASSLQSGVPSRFSGSGSGTDFTLTISSLQPEDFATYYCLQDSDYPLTFGGGTKLEIKR | binds
6 | scFv F003F01 (scFv) scFv: EVQLVQSGAEVRKPASSVKVSCKTSGGSFNDYSFNWVRQAPGQGLEWMGSIIPVFDMADYGQNFQGRLTITADESTTTAYMELSDLTPMDTAIYYCARVAMVGATHFDIWGQGTLVTVSSGGGGSGGGGSGGGGSAQSVLTQPPSASGTPGQRVTISCSGGSSNIGSNPVNWYQQVPGTAPKLLIYLSDQRPAGVPDRFSGSKSGTSASLAISGLQSEDEADYYCSTWDDSLNDPVVFGGGTKVTVLG | binds
7 | scFv F002D07 (scFv) scFv: QVQLVQSGGGVVQPGRSLRLSCAASGFIFSSYGMHWVRQAPGKGLEWVAGIFYDGGNKYYADSVKGRFTISRDNSKNTLYLQMNSLRAEDTAVYYCARDRGYYYMDVWGKGTTVTVSSGGGGSGGGGSGGGGSQSVLTQPPSVSGAPGQRVTISCTGRSSNIGAGHDVHWYQQLPGTAPKLLIYGDSNRPSGVPDRFSGSRSGTSASLAITGLQAEDEADYYCQSYDSSLRGSVFGGGTKVTVLG | binds
8 | scFv F003F09 (scFv) scFv: EVQLVQSGAEVRKPGSSVKVSCKASGDTFNNFAISWVRQAPGHGLEWVGGIIPVFNTADYAQNFTGRVTISADKATKTVYMELRSLRYDDTAVYFCARTKIELDNDAFDIWGRGTTVTVSSGGGGGSGGGGSGGGGSALPVLTQPPSASGTPGQRVTISCSGSTSNIGSNAVVWYQQLPGAAPKLLIYSNDQRPSGVPDRFSGSRSGTSASLAISGLQSEDEADYYCAAWDDSRDGPWVFGGGTKVTVLG | binds
9 | scFv F003G02 (scFv) scFv: QVQLQQSGAEVKKPGSSVKVSCKASGGTFSSYAISWVRQAPGQGLEWMGGIIPTFGIADYAQKFQGRVTITADESTSTAYMELTGLRSEDTAMYYCARGQLERLGEYDYWGRGTMVTVSSGGGGSGGGGSGGGGSAQSVLTQPPSASGTPGQRVTISCSGSSSNIEINTVNWYKQLPGTAPKLLIYSDYQRPSGVPDRFSASKSGTSASLAISGLQSEDEADYYCATWDDSLNGPVFGGGTKVTVLG | binds

Other lines, results leading:

Row | binding | Binder
10 | binds | scFv F076C06 (scFv) scFv: QVQLVQSGPEVKKPGSSVKVSCRASGGTFSTYAFSWVRQAPGQGLEWMGGIIPVFETPIYAQKLQGRLTITADTSTDTAYMELSNLRSGDTAVYYCAREWGDYYSSVSSGALHYWGRGTLVTVSSGGGGSGGGGSGGGGSAQAVLTQPSSASGTPGQRVTISCSGSSSNIGNNAVNWYQQLPGTAPKLLIYNNNQWPSGVPDRFSGSKSGTSASLAVSGLQSEDEADYYCAAWDDSLNGYVFGTGTQLTVLS
11 | binds | scFv F002C08 (scFv) scFv: EVQLVESGAEVKKPGSSVKVSCKASGGTFSSYAISWVRQAPGQGLEWMGGIIPIFGTANYAQKFQGRVTITADESTSTAYMELSSLGSEDTAVYYCARESLTGDSELDLWGKGTLVTVSSGGGGSGGGGSGGGGSQSVLTQPPSVSAAPGQKVTISCSGSTSNIGNNYVSWYQQHPGKAPKLMIYDVSKRPSGVPDRFSGSKSGNSASLDISGLQSEDEADYYCAAWDDSLSEFLFGTGTKLTVLG
12 | binds | scFv F076D02 (scFv) scFv: QVQLVQSGAEVRKPGSSVKVSCKASGDTFNNFAISWVRQAPGHGLEWVGGIIPVFNTADYAQNFTGRVTISADKATKTVYMELRSLRYDDTAVYFCARTKIELDNDAFDIWGQGTMVTVSSGGGGSGGGGSGGGGSAQSVLTQPPSASGTPGQRVTISCSGTTSNIGSNSVSWYQKLPGTAPKLLIHSNNLRPSGVPDRFSGSKSGTSASLAISGLRSEDEADYYCAAWDDSLSGPVVFGGGTKVTVLG
13 | binds | scFv F081C09 (scFv) scFv: QVQLVQSGAEVKKPGSSVRVSCKASGGSFSDYAIHWVRQAPGQGLEWMGGIIPIFGTANYAQKFQGRVTITADESTSTAYMELSSLRSEDTAVYYCAREAQYDDAFDIWGQRTMVTVSSGGGGSGGGGSGGGGSQSVLTQPPSVSAAPGQKVTISCSGSTSNIGNNYVSWYQQHPGKAPKLMIYDVSKRPSGVPDRFSGSKSGNSASLDISGLQSEDEADYYCAAWDDSLSEFLFGTGTKLTVLG
